Reference: US20150133524A1, “PYRUVATE DEHYROGENASE KINASES AS THERAEUTIC TARGETS FOR CANCER AND ISCHEMIC DISEASES” (THE JOHNS HOPKINS UNIVERSITY, priority 2004, published 2015)
At least one compound was matched to its structure with a doubt left.

System: P493-6 cells
Test: Growth/survival of P493-6 cells cultured in hypoxia with or without dichloroacetate
Assay type: cell-based, human
Conditions: hypoxia (0.1% O2), FIG. 6

Q: Which “survival of P493-6 cells under hypoxic conditions” value does the source give for O=C(O)C(Cl)Cl [dichloroacetate] here?
A: inhibited the survival
